Results from publication PMC12040169 (PLOS Biology, 2025).
This is one part of the list.

The compounds below were run on T1, CTL2-GFP (C. trachomatis L2/434/Bu, GFP-expressing). Details: bulk GFP, single well; 28.5 h, 10 µM; inhibitor.
T1 construct: L2/434/Bu, GFP-expressing
Parameters: species or system HeLa; Intracellular C. trachomatis growth in HeLa cells, bulk GFP fluorescence relative to DMSO

Structure (SMILES)	% of control remaining [%]
CC[C@H]1CN(C(=O)NC(C)C)CC[C@H]1CC(=O)Nc1nccs1 [CBK288774]	108.598
COc1ccc(C)cc1-n1ccc(C(=O)NC(C)(C)C(N)=O)n1 [CBK305789]	178.999
Clc1ccc(-c2csc3ncnc(SCc4ccco4)c23)cc1 [CBK265972]	139.072
CCCC(=O)c1ccc(S(=O)(=O)N2CCCN(Cc3ccc(F)cc3Cl)CC2)cc1 [CBK062917]	109.451
Clc1cccc(-c2cncc(NCc3ccc4c(c3)OCO4)n2)c1 [CBK065323]	102.17
CCOC(=O)c1csc(C2CCCN2C(=O)c2ccoc2C)n1 (stereo not drawn) [CBK304080]	120.139
COc1cccc(Nc2c(C(=O)N3CCCCC3)cnc3nc(C)ccc23)c1 [CBK287817]	90.7283
Oc1ccc2cc(-c3cccc(C(F)(F)F)c3)cnc2n1 [CBK081285]	67.2038
O=C(c1ccccc1-c1ccccc1)N1CCn2cnnc2C1 [CBK283789]	134.726
CCN1CCN(c2c(Cl)cccc2NC(=O)c2ccc(N3CCOCC3)c([N+](=O)[O-])c2)CC1 [CBK269066]	99.2316
CCC(C)c1ccc(NC(=S)NCCn2cc(Cl)cn2)cc1 (stereo not drawn) [CBK267101]	97.0389
COc1ccccc1CNCCNC(=O)OC(C)(C)C [CBK056694]	82.7754
C/C(Nc1ccc(S(=O)(=O)Nc2nccc(C)n2)cc1)=C1\C(=O)N(c2nc3ccccc3s2)N=C1C(F)(F)F [CBK263002]	18.8224
CCCC(=O)N[C@@H](C)Cn1c(C(F)(F)F)cc2cccnc21 [CBK283232]	124.111
CN(C)c1ccc(-c2nnnn2[C@H]2CO[C@H]3[C@@H]2OC[C@H]3O)cc1 [CBK289481]	117.806
OC1(CCCN2CCOCC2)C2CCCC1CN(Cc1ccccc1)C2 (stereo not drawn) [CBK025076C]	129.583
FC(F)(F)c1cccc(OCCN2CCNCC2)n1 [CBK113291]	114.468
COc1ccc(CCNC(=O)NS(=O)(=O)c2ccc(C)cc2)cc1OC [CBK300510]	145.394
CC(=O)N1CCC[C@@H]1C(=O)N1CC[C@@H]2NC(=O)[C@H](Cc3ccccc3)NC(=O)C3(C/C=C/C[C@@H]2C1)CCOCC3 [CBK292195]	135.085
COc1cccc(OCCCCCc2c(C)n[nH]c2C)c1 [CBK261805]	100.543
COc1ccccc1NC(=O)CCSc1nc(C)cc(C)n1 [CBK266371]	118.946

Two entries from above, with bars between the fields:
Structure (SMILES) | % of control remaining [%]
Clc1cccc(-c2cncc(NCc3ccc4c(c3)OCO4)n2)c1 [CBK065323] | 102.17
CCOC(=O)c1csc(C2CCCN2C(=O)c2ccoc2C)n1 (stereo not drawn) [CBK304080] | 120.139
